The target of one assay is GFP-tagged SRA1 (UniProt Q7L576). Kind of assay: co-IP; TMEM132D-V5 (or mutants) and GFP-tagged WRC components co-transfected in HEK293 cells; lysate on GFP-Trap beads 4 °C 2 h, five washes with lysis buffer; blot with antibodies against V5 and GFP.
In assay [1] the target is GFP-tagged full-length NAP1 (human) (UniProt Q9Y2A7). The description is as above.

Sequences of proteins named here, by UniProt entry; tags and fusion partners are left off. Residues count along the entry.
UniProt Q7L576: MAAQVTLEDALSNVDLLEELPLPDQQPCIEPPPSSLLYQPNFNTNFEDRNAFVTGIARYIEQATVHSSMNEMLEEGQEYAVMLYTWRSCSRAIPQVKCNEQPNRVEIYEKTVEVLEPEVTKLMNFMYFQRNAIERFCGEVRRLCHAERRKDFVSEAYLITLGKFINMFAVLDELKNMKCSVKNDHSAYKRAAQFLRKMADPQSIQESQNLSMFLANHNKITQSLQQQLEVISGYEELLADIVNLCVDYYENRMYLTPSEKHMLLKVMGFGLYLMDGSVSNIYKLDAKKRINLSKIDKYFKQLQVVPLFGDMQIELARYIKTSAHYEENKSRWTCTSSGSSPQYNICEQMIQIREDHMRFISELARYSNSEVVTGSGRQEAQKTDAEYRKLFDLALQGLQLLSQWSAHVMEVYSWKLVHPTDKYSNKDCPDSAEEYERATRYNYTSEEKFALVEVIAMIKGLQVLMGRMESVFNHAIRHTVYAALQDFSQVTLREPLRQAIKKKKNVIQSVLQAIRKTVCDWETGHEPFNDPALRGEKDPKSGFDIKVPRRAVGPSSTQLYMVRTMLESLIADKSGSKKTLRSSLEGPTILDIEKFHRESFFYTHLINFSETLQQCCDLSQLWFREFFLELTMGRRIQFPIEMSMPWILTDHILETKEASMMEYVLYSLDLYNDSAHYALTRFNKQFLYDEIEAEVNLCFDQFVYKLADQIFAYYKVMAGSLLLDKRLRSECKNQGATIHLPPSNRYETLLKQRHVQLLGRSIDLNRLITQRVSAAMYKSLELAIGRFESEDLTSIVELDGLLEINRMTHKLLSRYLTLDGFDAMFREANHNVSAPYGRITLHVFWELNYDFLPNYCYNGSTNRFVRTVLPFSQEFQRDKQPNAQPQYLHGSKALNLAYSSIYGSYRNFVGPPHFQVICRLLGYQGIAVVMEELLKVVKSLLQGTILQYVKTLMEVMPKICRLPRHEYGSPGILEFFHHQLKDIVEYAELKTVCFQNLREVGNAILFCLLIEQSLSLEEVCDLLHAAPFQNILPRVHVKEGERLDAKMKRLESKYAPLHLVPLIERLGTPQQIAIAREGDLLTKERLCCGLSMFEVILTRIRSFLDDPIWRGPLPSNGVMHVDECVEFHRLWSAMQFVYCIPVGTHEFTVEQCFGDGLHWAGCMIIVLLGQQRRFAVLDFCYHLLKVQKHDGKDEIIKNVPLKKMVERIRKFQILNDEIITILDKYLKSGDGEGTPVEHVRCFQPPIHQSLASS
UniProt Q9Y2A7: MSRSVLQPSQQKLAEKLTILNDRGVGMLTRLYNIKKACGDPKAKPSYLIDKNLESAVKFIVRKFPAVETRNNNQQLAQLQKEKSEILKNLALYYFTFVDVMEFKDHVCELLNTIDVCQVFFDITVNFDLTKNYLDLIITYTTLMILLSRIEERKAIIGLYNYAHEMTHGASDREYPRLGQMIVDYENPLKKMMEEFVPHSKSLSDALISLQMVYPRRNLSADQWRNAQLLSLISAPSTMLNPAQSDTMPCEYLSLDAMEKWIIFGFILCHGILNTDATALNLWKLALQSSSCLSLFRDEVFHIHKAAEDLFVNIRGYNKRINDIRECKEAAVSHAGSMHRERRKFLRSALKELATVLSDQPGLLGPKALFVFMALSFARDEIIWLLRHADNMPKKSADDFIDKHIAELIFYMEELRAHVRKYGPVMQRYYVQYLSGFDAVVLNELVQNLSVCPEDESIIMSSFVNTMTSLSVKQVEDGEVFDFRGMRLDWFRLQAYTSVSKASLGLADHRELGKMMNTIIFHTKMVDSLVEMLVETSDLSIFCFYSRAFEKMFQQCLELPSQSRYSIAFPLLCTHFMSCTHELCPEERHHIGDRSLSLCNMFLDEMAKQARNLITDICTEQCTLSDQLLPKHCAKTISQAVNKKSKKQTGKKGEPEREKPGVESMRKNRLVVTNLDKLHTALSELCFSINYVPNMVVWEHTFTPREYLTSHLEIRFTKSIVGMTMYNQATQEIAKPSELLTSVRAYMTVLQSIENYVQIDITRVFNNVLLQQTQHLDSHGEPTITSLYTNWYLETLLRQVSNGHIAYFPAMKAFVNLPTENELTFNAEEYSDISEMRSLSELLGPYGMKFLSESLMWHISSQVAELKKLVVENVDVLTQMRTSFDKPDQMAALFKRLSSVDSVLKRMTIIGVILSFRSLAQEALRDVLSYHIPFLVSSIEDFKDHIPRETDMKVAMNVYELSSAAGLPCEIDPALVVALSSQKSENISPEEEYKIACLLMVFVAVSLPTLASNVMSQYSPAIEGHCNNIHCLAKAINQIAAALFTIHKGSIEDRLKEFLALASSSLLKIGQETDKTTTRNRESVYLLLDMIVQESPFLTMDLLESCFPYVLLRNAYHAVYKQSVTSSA
UniProt Q14C87, residues 31-1099: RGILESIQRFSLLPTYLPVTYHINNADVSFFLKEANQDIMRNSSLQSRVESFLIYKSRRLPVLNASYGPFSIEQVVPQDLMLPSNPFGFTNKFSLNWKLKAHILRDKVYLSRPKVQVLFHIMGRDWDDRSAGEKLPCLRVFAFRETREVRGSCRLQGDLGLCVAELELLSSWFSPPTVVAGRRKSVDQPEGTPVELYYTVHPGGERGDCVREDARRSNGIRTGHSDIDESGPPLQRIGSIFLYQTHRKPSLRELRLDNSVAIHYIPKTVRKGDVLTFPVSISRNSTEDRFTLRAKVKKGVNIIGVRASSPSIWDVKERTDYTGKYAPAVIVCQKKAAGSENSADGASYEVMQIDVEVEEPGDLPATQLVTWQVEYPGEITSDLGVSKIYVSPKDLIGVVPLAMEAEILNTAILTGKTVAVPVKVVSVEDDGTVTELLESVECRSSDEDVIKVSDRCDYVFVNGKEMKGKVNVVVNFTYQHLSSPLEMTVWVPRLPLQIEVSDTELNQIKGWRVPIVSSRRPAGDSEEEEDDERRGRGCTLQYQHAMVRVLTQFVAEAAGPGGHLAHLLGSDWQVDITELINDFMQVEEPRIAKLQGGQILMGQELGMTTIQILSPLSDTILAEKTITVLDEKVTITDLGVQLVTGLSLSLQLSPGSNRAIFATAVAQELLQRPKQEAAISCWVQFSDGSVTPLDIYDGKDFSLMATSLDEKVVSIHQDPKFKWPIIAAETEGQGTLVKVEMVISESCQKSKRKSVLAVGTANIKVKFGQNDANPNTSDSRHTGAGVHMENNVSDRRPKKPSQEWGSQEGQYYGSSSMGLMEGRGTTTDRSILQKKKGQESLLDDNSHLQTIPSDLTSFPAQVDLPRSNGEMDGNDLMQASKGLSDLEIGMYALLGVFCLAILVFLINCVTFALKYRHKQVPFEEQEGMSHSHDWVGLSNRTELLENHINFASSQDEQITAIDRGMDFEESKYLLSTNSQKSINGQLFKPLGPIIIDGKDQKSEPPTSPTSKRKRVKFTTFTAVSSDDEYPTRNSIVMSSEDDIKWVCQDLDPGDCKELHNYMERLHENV

Results are given in words; binding and its absence hold for the method and conditions named. In cells and extracts the contact can be indirect. Some entries that bind do so weakly or less than the wild type.

For the substance “V5 epitope-tagged human TMEM132D (from UniProt Q14C87 31-1099)”, the binding entry (with GFP-tagged SRA1; in assay [1]) was “binds” throughout.

The values are drawn from publication PMC7962252.
